Test results: patent publication US20140193421A1 (EISAI R AND D MANAGEMENT, published 2014)

B1: mouse anti-human XCR1 antibody (2H6) (antibody, IgG2b, V domains shown)
VH: QAYLQQSGAELVRPGASVKMSCKASGYTFSSHNMHWIKQTLRQGLEWIGAIYPGKGNTSYNQKFKGKATLTVDKSSSTAYMQLSSLTSEDSAVYFCARWGSVVGDWYFDVWGTGTTVTVSS
VL: DVVVTQTPLSLPVSLGDQASISCRSSQSLVHSNGNTYLHWYLQKPGQSPKLLIYRVSNRFSGVPDRFSGSGLGRDFTLKISRVEAEDLGVYFCSQSTFVPWTFGGGTKLEIK
B2: mouse anti-human XCR1 antibody (5G7) (antibody, IgG2b, V domains shown)
VH: B1 VH with S30T, M34L, I37V, L41P, E46Q, K55N, S59A, E89D
VL: DVVMTQTPLSLPVTLGNQASIFCRSSLGLVHRNGNTYLHWYLQKPGQSPKLLIYKVSHRFSGVPDRFSGSGSGTDFTLKISRVEAEDLGVYFCSQSTHVPWTFGGGTKLEIK
notes: also called 5G7 Mab; parent antibody 5G7
B3: mouse anti-human XCR1 antibody (11H2) (antibody, IgG2a, V domains shown)
VH: EVQLQQSGPVLVKPGASVKMSCKASGYTFTDYYVNWVKQSHGASLEWIGVSNPKNGDKSYNQKFKGKATLTVDKSSSTAYMELNSLTSEDSAVYYCARGLYYAGTYGYFDVWGTGTTVTVSS
VL: DIQMTQATSSLSASLGDRVTISCRASQDISNYLNWYQQKPDGTVKLLIYYTSRLHSGVPSRFRGSGSGTDFSLTISNLEQEDIATYFCQQGKTLPRTLGGGTKLEIK

Molecular target: chimera receptor mmHm
Assay: FACS on cells expressing the chimera

binding, no binding:
B1
B2
B3

Where a chain is given by its changes, count along the chain named. No constants are given. Whether binding was seen depends on the method and setting.
